From paper PMC5046144

Biological target: T1, IFT20-GST (UniProt Q8LLV9)
T1 sequence: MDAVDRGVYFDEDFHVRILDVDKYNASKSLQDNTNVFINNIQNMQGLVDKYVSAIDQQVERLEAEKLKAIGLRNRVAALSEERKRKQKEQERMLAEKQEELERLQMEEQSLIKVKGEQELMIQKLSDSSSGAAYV
Assay: pull-down; IFT20-GST or recombinant GST incubated with 1 ml pre-cleared C. reinhardtii total cell lysate in PBS at 4 °C for 3 h, then GST beads for 1 h; washed three times with cold PBS; immunoblot with anti-ChR1 peptide and anti-GST; only the target purified

binding: binds
Substance: Channelrhodopsin 1

Results are given in words; binding and its absence hold for the method and conditions named. Binding seen in cells or lysates may run through a third protein. Binding calls can cover weak binding; strength is not graded here. Where a sequence is shown, tags or fusion partners need not be part of it.
